Paper PMC3716696 (PLoS ONE, 2013)
Residues, ends and D or L forms follow the SMILES beside them.

Assay: Isotope dilution MS (IDMS) of endogenous SP and SP fragments in spinal cord
Assay type: in vivo
Settings: endogenous level, WT mouse spinal cord, IDMS with heavy-labelled peptides, LC-MS/MS after SCX, N = 4

SMILES | Absolute quantity in the spinal cord, SPC
CSCC[C@H](NC(=O)[C@H](CC(C)C)NC(=O)CNC(=O)[C@H](Cc1ccccc1)NC(=O)[C@H](Cc1ccccc1)NC(=O)[C@H](CCC(N)=O)NC(=O)[C@H](CCC(N)=O)NC(=O)[C@@H]1CCCN1C(=O)[C@H](CCCCN)NC(=O)[C@@H]1CCCN1C(=O)[C@@H](N)CCCNC(=N)N)C(N)=O [SP, Substance P] | 105.9 ± 8.5 pmol/g
N=C(N)NCCC[C@H](N)C(=O)N1CCC[C@H]1C(=O)N[C@@H](CCCCN)C(=O)N1CCC[C@H]1C(=O)N[C@@H](CCC(N)=O)C(=O)N[C@@H](CCC(N)=O)C(=O)N[C@@H](Cc1ccccc1)C(=O)O [SP1–7] (H-RPKPQQF-OH) | 1.6 ± 0.5 pmol/g
